Here are results for three molecules from patent publication US7214519B2, “Screening method for identifying heme independent modulators of soluble guanylyl cyclase (sGC) activity using αβCys105 mutant sGC” (Board of Regents of the University of Texas System, priority 2003, dated 2007).

Several values for one entry are separate records, joined by “and”; a condition that tells them apart may be missing. Identical values can stand only once. Like-named read-outs stand apart in the source and are kept apart here.

For data set [1] the following is noted: cited from earlier work.
Data set [2] is described as follows: UV-Vis spectroscopy of sGC enzymes (heme content, Soret peak). Format: physicochemical. The following applies: after heme reconstitution.

Take “Wild Type: recombinant wild type human soluble guanylyl cyclase expressed in Sf9 cells”: the “λmax of Soret peak” value in data set [1] (+NO, wild type) is 399 nm; in data set [1] (Basal, wild type), 431 nm.

As for “αβ^Cys105: heme-deficient, constitutively active human soluble guanylyl cyclase mutant; β subunit carries His105→Cys substitution”, the “λmax of Soret peak” value in data set [2] (+NO) is given as 400 nm; in data set [2] (Basal), 417 nm.

B1: αβ^Phe105: bovine sGC with βHis105→Phe substitution, from the literature (40) (protein, UniProt P19687 1-691; P16068 1-619, looked up, variant H105F)
Guanylate cyclase soluble … 1: MFCAKLKDLQITGDCPFSLLAPGQVPREPLGEATGSGPASTPGQPGVCPGVPDKNPPGRLPRRKTSRSRVYLHTLAESICKLIFPEFERLNLALQRTLAKHKIKENRKSLEREDFEKIVVDQAIAAGVPVEIIKESLGEELFKICYEEDEYILGVVGGTLKDFLNSFSTLLKQSSHCQEAEKKGRFEDASILCLDKDPDVLYVYYFFPKRITSLILPGIIKAAARILYETEVEVSSTPSRFHQDCREFVDQPCELYSVHIRSARPHPPPGKPVSSLVIPASLFCKTFPFHFMLDRDMSILQLGHGIRRLMSRRDVQGKPHFDEYFEILTPKISQTFSGIMTMLNMQFLVRVRRWDNSMKKSSRVMDLKGQMIYMVESSSILFLGSPCVDRLEDFTGRGLYLSDIPIHNALRDVVLIGEQARAQDGLKKRLGKLKATLEQAHQALEEEKRKTVDLLCSIFPSEVARQLWQGHAVQAKRFGNVTMLFSDIVGFTAICSQCSPLQVITMLNALYTRFDRQCGELDVYKVETIGDAYCVAGGLHKESDTHAVQIALMALKMMELSHEVVSPHGEPIKMRIGLHSGSVFAGVVGVKMPRYCLFGNNVTLANKFESCSVPRKINVSPTTYRLLKDCPGFVFTPRSREELPPNFPSDIPGICHFLEAYQQGTTSKPWFQKKDVEEANANFLGKASGID
Guanylate cyclase soluble … 2: MYGFVNHALELLVIRNYGPEVWEDIKKEAQLDEEGQFLVRIIYDDSKTYDLVAAASKVLNLNAGEILQMFGKMFFVFCQESGYDTILRVLGSNVREFLQNLDALFDHLATIYPGMRAPSFRCTDADKGKGLILHYYSEREGLQDIVIGIIKTVAQQIHGTEIDMKVIQQRNEECDHTQFLIEEKESKEEDFYEDLDRFEENGTQESRISPYTFCKAFPFHIIFDRDLVVTQCGNAIYRVLPQLQPGNCSLLSVFSLVRPHIDISFHGILSHINTVFVLRSKEGLLDVEKSECEDELTGTEISCLRLKGQMIYLPEADSILFLCSPSVMNLDDLTRRGLYLSDIPLHDATRDLVLLGEQFREEYKLTQELEILTDRLQLTLRALEDEKKKTDTLLYSVLPPSVANELRHKRPVPAKRYDNVTILFSGIVGFNAFCSKHASGEGAMKIVNLLNDLYTRFDTLTDSRKNPFVYKVETVGDKYMTVSGLPEPCIHHARSICHLALDMMEIAGQVQVDGESVQITIGIHTGEVVTGVIGQRMPRYCLFGNTVNLTSRTETTGEKGKINVSEYTYRCLMTPENSDPQFHLEHRGPVSMKGKKEPMQVWFLSRKNTGTEETEQDEN
modifications: mutation in beta subunit
B1: in data set [1] (Basal, after heme reconstitution), the “λmax of Soret peak” value is 400 nm and 400^#,(40) nm. Moreover, the Heme result in data set [1] (αβ^Phe105, literature) is given as “No”.
